{
  "source": "patent US20240158430A1",
  "about": "“NOVEL COMPOUND OR SALT THEREOF, AND ANTITUMOR ACTIVATOR CONTAINING SAME AS ACTIVE INGREDIENT” (AKITA UNIVERSITY, priority 2021, published 2024)",
  "test": "Safety and toxicity test",
  "format": "in vivo, mouse",
  "details": "Day 7; single 1 mg/body tail vein iv; individual values",
  "protocol": "In vivo safety and toxicity of GO-Y199 were investigated. The method is as follows. As described above, the equivalent of 1 mg of GO-Y199 was injected into the tail vein, blood was collected from the orbital vein 7 days later, and a hemoglobin value (Hb), the number of white blood cells (WBC), and the number of platelets (Plt) were measured with Cell tac MEK-5258 (available from Nihon Kohden Corporation). A creatinine value (Cre), a total bilirubin value (T-Bil), and an AST value were subjected to outsourcing (measured in Skylight Biotech Inc.). FIG. 29 indicates change in body weight of mice after intravenous injection. FIG. 30 indicates photographs of the tail of the mouse after intravenous injection.",
  "note": "At least one structure is not confirmed: it was looked up by name or label, or the drawing left a doubt.",
  "data": [
    {"smiles": "COCOc1cc(/C=C/C(=O)CC(SCCOCCOCCOCCOCc2cn([C@@H]3O[C@H](CO)[C@@H](O[C@@H]4O[C@H](CO)[C@H](O)[C@H](O)[C@H]4O)[C@H](O)[C@H]3O)nn2)c2cc(OCOC)cc(OCOC)c2)cc(OCOC)c1", "note": "(stereo partly drawn) [GO-Y199]", "values": [
      {"measurement": "Hb (g/dL)", "result": "14.9, 15.8 g/dL"},
      {"measurement": "Plt (10^4/μL)", "result": "87.7, 78.3 10^4/μL"},
      {"measurement": "WBC (/μL)", "result": "6400, 69700 /μL"}
    ]}
  ]
}
